According to doi:10.1101/2020.03.23.003509:
Where two headings read alike, the source gives them in different places. Results are given in words; binding and its absence hold for the method and conditions named. Binding seen in cells or lysates may run through a third protein. Some binding calls cover weakened binding; strength is not graded here. For some assays here: Tags and fused reporters may be left off the sequences shown.

Chains of the proteins cited; added tags and fusions are not shown.
UniProt P62258: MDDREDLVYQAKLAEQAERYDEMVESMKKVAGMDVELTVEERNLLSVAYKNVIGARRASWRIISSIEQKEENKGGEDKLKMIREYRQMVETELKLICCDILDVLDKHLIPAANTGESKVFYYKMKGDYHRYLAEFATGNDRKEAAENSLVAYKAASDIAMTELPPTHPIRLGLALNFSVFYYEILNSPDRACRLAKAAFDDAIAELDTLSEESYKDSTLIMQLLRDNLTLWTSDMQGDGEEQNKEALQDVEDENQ

T1: GST-Kaiso (full-length Kaiso, ZBTB33, from pEBG-GST-Kaiso) (human) (UniProt Q86T24)
T1 sequence: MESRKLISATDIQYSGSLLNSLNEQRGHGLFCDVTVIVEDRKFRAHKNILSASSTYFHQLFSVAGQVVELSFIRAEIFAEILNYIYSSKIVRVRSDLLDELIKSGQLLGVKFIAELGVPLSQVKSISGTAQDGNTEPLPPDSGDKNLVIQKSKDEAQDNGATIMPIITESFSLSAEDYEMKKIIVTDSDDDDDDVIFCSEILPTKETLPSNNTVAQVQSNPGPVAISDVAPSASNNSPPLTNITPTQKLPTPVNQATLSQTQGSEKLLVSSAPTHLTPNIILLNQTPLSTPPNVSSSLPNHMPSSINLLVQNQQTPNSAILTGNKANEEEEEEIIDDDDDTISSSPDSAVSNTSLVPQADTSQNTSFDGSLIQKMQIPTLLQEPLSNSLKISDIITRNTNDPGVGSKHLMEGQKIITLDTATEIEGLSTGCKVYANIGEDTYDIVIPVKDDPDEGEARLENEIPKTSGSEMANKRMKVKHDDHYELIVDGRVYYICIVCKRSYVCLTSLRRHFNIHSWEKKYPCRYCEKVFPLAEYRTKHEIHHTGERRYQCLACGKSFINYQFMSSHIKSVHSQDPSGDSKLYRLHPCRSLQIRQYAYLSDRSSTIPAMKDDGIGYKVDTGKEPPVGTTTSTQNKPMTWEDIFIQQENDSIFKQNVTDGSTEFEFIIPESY

T2: endogenous Kaiso (ZBTB33) (human (endogenous in MGC803)) (UniProt Q86T24)
T2 sequence: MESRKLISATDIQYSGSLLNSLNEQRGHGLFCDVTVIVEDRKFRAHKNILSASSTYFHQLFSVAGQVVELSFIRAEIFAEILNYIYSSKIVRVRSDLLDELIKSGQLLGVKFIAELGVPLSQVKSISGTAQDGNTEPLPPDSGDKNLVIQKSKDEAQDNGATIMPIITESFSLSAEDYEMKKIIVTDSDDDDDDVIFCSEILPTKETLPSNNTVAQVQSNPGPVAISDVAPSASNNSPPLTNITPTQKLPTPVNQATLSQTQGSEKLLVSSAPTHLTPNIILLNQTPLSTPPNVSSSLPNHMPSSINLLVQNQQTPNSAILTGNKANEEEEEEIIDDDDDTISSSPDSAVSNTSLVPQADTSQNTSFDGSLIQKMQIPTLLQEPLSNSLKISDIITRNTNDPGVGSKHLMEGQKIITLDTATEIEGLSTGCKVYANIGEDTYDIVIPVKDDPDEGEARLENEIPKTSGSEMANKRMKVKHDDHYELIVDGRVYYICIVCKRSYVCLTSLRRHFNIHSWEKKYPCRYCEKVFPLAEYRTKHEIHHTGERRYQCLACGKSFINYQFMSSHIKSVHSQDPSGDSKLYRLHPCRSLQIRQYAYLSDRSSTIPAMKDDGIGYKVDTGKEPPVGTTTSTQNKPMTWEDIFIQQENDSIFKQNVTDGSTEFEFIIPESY


Experiments:
[1] = target: T1, GST-Kaiso (full-length Kaiso, ZBTB33, from pEBG-GST-Kaiso) (human); test: pull-down
[2] = target: T2, endogenous Kaiso (ZBTB33) (human (endogenous in MGC803)); test: co-IP
[3] = target: T2, endogenous Kaiso (ZBTB33) (human (endogenous in MGC803)); test: co-IP; remark: listed apart in the source

binding [1] | binding [2] | binding [3] | Molecule
– | binds | binds | endogenous P120ctn (CTNND1) (protein, UniProt O60716 1-968) MDDSEVESTASILASVKEQEAQFEKLTRALEEERRHVSAQLERVRVSPQDANPLMANGTLTRRHQNGRFVGDADLERQKFSDLKLNGPQDHSHLLYSTIPRMQEPGQIVETYTEEDPEGAMSVVSVETSDDGTTRRTETTVKKVVKTVTTRTVQPVAMGPDGLPVDASSVSNNYIQTLGRDFRKNGNGGPGPYVGQAGTATLPRNFHYPPDGYSRHYEDGYPGGSDNYGSLSRVTRIEERYRPSMEGYRAPSRQDVYGPQPQVRVGGSSVDLHRFHPEPYGLEDDQRSMGYDDLDYGMMSDYGTARRTGTPSDPRRRLRSYEDMIGEEVPSDQYYWAPLAQHERGSLASLDSLRKGGPPPPNWRQPELPEVIAMLGFRLDAVKSNAAAYLQHLCYRNDKVKTDVRKLKGIPVLVGLLDHPKKEVHLGACGALKNISFGRDQDNKIAIKNCDGVPALVRLLRKARDMDLTEVITGTLWNLSSHDSIKMEIVDHALHALTDEVIIPHSGWEREPNEDCKPRHIEWESVLTNTAGCLRNVSSERSEARRKLRECDGLVDALIFIVQAEIGQKDSDSKLVENCVCLLRNLSYQVHREIPQAERYQEAAPNVANNTGPHAASCFGAKKGKDEWFSRGKKPIEDPANDTVDFPKRTSPARGYELLFQPEVVRIYISLLKESKTPAILEASAGAIQNLCAGRWTYGRYIRSALRQEKALSAIADLLTNEHERVVKAASGALRNLAVDARNKELIGKHAIPNLVKNLPGGQQNSSWNFSEDTVISILNTINEVIAENLEAAKKLRETQGIEKLVLINKSGNRSEKEVRAAALVLQTIWGYKELRKPLEKEGWKKSDFQVNLNNASRSQSSHSYDDSTLPLIDRNQKSDKKPDREEIQMSNMGSNTKSLDNNYSTPNERGDHNRTLDRSGDLGDMEPLKGTTPLMQDEGQESLEEELDVLVLDDEGGQVSYPSMQKI
binds weakly | – | – | Flag-14-3-3η (protein, UniProt Q04917 1-246) MGDREQLLQRARLAEQAERYDDMASAMKAVTELNEPLSNEDRNLLSVAYKNVVGARRSSWRVISSIEQKTMADGNEKKLEKVKAYREKIEKELETVCNDVLSLLDKFLIKNCNDFQYESKVFYLKMKGDYYRYLAEVASGEKKNSVVEASEAAYKEAFEISKEQMQPTHPIRLGLALNFSVFYYEIQNAPEQACLLAKQAFDDAIAELDTLNEDSYKDSTLIMQLLRDNLTLWTSDQQDEEAGEGN

The remaining lines, values behind:

Molecule | binding [1] | binding [2] | binding [3]
Flag-14-3-3ε (from UniProt P62258 1-255) | binds | – | –
Flag-14-3-3γ (protein, UniProt P61981 1-247) MVDREQLVQKARLAEQAERYDDMAAAMKNVTELNEPLSNEERNLLSVAYKNVVGARRSSWRVISSIEQKTSADGNEKKIEMVRAYREKIEKELEAVCQDVLSLLDNYLIKNCSETQYESKVFYLKMKGDYYRYLAEVATGEKRATVVESSEKAYSEAHEISKEHMQPTHPIRLGLALNYSVFYYEIQNAPEQACHLAKTAFDDAIAELDTLNEDSYKDSTLIMQLLRDNLTLWTSDQQDDDGGEGNN | binds | – | –
